Data reported in patent US8476434B2, “Protein kinase modulators and method of use” (Amgen Inc., priority 2004, dated 2013).
Some results were stated once for a whole list of compounds, not compound by compound.

By UniProt entry, the sequences of proteins in these tests, tags left out. Residues count along the entry.
UniProt Q02763, 23-1124: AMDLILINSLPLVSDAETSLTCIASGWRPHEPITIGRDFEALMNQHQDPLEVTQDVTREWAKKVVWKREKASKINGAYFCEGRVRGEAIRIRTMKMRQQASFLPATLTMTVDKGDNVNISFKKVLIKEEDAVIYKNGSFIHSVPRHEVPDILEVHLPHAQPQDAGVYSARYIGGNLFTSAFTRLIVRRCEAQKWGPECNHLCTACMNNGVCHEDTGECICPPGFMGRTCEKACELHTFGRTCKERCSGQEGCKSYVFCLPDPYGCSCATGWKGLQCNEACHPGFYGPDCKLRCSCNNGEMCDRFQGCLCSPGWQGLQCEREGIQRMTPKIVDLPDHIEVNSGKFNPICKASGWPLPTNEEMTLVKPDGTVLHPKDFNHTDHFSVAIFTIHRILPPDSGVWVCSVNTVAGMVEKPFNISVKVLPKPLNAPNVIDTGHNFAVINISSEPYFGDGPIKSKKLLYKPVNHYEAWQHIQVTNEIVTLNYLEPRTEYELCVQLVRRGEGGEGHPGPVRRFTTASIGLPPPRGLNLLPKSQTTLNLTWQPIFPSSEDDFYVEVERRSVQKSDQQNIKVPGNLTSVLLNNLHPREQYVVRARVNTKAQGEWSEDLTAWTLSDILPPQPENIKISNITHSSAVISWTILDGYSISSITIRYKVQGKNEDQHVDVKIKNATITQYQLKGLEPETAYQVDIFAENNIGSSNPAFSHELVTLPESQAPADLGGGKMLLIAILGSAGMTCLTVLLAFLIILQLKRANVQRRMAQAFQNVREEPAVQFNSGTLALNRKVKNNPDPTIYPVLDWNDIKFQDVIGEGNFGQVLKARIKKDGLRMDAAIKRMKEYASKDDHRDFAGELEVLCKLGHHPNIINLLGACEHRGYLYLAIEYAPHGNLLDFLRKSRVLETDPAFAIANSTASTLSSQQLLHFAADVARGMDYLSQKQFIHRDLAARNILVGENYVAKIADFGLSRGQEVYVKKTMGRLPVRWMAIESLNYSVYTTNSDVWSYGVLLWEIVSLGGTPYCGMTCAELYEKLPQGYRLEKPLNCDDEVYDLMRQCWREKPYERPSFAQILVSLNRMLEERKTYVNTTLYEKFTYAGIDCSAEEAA
UniProt Q96GD4, whole entry: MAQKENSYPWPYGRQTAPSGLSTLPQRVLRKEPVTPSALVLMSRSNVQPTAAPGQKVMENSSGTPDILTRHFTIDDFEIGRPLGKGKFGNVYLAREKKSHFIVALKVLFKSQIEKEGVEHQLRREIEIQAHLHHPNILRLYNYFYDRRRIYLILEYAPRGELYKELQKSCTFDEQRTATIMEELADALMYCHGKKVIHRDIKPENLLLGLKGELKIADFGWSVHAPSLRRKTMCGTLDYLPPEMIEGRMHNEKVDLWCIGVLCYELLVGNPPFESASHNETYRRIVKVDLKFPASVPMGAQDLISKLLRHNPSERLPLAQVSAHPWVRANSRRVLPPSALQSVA

Tests used:
Format in all cases: biochemical
Tie-2 kinase enzyme = Tie-2 kinase enzyme (Homo sapiens, UniProt Q02763); experiment: Tie-2 Homogenous Time Resolved Fluorescent (HTRF) kinase assay; conditions: read-out: IC50's for the inhibition of Tie-2 as measured by the HTRF assay
AuroraA-TPX2 KD GST = target: T1, AuroraA-TPX2 KD GST (Homo sapiens, UniProt O14965); experiment: AuroraA-TPX2 Homogeneous Time Resolved Fluorescent (HTRF) kinase assay; conditions: read-out: activity in the Aurora kinase A HTRF assay
T1 construct: AuroraA-TPX2 KD GST; GST
T1 sequence (O14965 133-383 limits assumed): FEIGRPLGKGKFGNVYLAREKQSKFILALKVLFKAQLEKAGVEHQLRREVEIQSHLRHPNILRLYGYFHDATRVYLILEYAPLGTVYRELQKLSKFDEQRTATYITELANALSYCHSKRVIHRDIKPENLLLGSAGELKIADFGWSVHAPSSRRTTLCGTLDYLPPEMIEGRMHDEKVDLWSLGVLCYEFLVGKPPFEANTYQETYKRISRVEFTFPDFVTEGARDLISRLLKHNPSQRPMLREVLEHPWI
T1 sequence (Q9ULW0 1-43 partner limits assumed): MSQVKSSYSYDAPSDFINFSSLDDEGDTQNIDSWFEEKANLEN

AuroraB FL His = target: T2, AuroraB FL His (Homo sapiens, UniProt Q96GD4); experiment: AuroraB Homogeneous Time Resolved Fluorescent (HTRF) kinase assay; conditions: read-out: activity in the Aurora kinase B HTRF assay
T2 construct: AuroraB FL His; His

SMILES | IC50 (Tie-2 kinase enzyme) [µM] | IC50 (AuroraA-TPX2 KD GST) [µM] | IC50 (AuroraB FL His) [µM]
CNc1nccc(-c2cccnc2Oc2ccc(NC(=O)Nc3ccc(C)c(F)c3)cc2)n1 [Example 974, N-(3-fluoro-4-methylphenyl)-N′-(4-((3-(2-(methylamino)-4-pyrimidinyl)-2-pyridinyl)oxy)phenyl)urea] | < 5 | < 10 | < 10
CNc1nccc(-c2cccnc2Oc2ccc(NC(=O)Nc3ccc(C(C)C)cc3)cc2)n1 [Example 975, N-(4-((3-(2-(methylamino)-4-pyrimidinyl)-2-pyridinyl)oxy)phenyl)-N′-(4-(1-methylethyl)phenyl)urea] | < 5 | < 10 | < 10
CNc1nccc(-c2cccnc2Oc2ccc(NC(=O)Nc3ccc(Br)cc3)cc2)n1 [Example 978, N-(4-bromophenyl)-N′-(4-((3-(2-(methylamino)-4-pyrimidinyl)-2-pyridinyl)oxy)phenyl)urea] | < 5 | < 10 | < 10
CNc1nccc(-c2cccnc2Oc2ccc(NC(=O)Nc3ccc(Oc4ccccc4)cc3)cc2)n1 [Example 979, N-(4-((3-(2-(methylamino)-4-pyrimidinyl)-2-pyridinyl)oxy)phenyl)-N′-(4-(phenyloxy)phenyl)urea] | < 5 | < 10 | < 10
CNc1nccc(-c2cccnc2Oc2ccc(NC(=O)c3ccc4cc[nH]c4c3)cc2C)n1 [Example 991, N-(3-methyl-4-((3-(2-(methylamino)-4-pyrimidinyl)-2-pyridinyl)oxy)phenyl)-1H-indole-6-carboxamide] | < 5 | < 10 | < 10
CNc1nccc(-c2cccnc2Oc2ccc(NC(=O)c3cccc(-n4cccc4)c3)cc2C)n1 [Example 994, N-(3-methyl-4-((3-(2-(methylamino)-4-pyrimidinyl)-2-pyridinyl)oxy)phenyl)-3-(1H-pyrrol-1-yl)benz-amide] | < 5 | < 10 | < 10
CNc1nccc(-c2cccnc2Oc2ccc(NC(=O)c3cccc(Oc4ccccc4)c3)cc2C)n1 [Example 995, N-(3-methyl-4-((3-(2-(methylamino)-4-pyrimidinyl)-2-pyridinyl)oxy)phenyl)-3-(phenyloxy)benzamide] | < 5 | < 10 | < 10
CNc1nccc(-c2cccnc2Oc2ccc(NC(=O)Nc3cc(Cl)cc(Cl)c3)cc2)n1 [Example 997, N-(3,5-dichlorophenyl)-N′-(4-((3-(2-(methylamino)-4-pyrimidinyl)-2-pyridinyl)oxy)phenyl)urea] | < 5 | < 10 | < 10
CNc1nccc(-c2cccnc2Oc2ccc(NC(=O)Nc3ccc(F)c(C(F)(F)F)c3)cc2)n1 [Example 998, N-(4-fluoro-3-(trifluoromethyl)phenyl)-N′-(4-((3-(2-(methylamino)-4-pyrimidinyl)-2-pyridinyl)oxy)phenyl)urea] | < 5 | < 10 | < 10
CNc1nccc(-c2cccnc2Sc2ccc(NC(=O)Nc3ccc(Cl)cc3)cc2)n1 [Example 1000, N-(4-chlorophenyl)-N′-(4-((3-(2-(methylamino)-4-pyrimidinyl)-2-pyridinyl)sulfanyl)phenyl) urea] | < 5 | < 10 | < 10
CNc1nccc(-c2cccnc2Oc2ccc(NC(=O)c3cccc(-n4cccc4)c3)cc2)n1 [Example 1002, N-(4-((3-(2-(methylamino)-4-pyrimidinyl)-2-pyridinyl)oxy)phenyl)-3-(1H-pyrrol-1-yl)benzamide] | < 5 | < 10 | < 10
CNc1nccc(-c2cccnc2Oc2ccc(NC(=O)c3cc4ccccc4n3C)cc2C)n1 [Example 1003, 1-methyl-N-(3-methyl-4-((3-(2-(methylamino)-4-pyrimidinyl)-2-pyridinyl)oxy)phenyl)-1H-indole-2-carboxamide] | < 5 | < 10 | < 10
